Laboratory results: PubChem BioAssay AID504786 (Drosophila RNAi Screening Center, 2011)

Aim: 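Positive regulators of HIF-driven reporter output in Drosophila cells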 (primary screen)
System: Drosophila S2 cells with a stable HIF luciferase reporter
Knock-down reagent: long dsRNA against Drosophila genes, about 0.2 µg dsRNA per well of a 384-well plate
Time to read-out: three days of knock-down, then 20 h of DFO before reading
Conditions: desferrioxamine (DFO) at 100 µM, an iron chelator that mimics hypoxia, for 20 h
Measured: 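Firefly luciferase driven by the mouse ldh-a hypoxia-response element, measured after 20 h of 100 µM DFO; z-scores per plate, higher means more signal lost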
Scale: z-score: higher = stronger loss of HIF reporter signal
The screen tested about 21,000 reagents; shown is an unselected part of those with a known target gene and a result. 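Primary screen; positive scores mean lost reporter signal, so the sign may be inverted from the usual convention.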 Names joined by + are all predicted targets of the reagent.

gene | DRSC id | z-score, replicate 1 | z-score, replicate 2 | z-score, replicate 3 | z-score, replicate 4
RpS9 | DRSC11273 | 7.8 | 5.8 | – | –
CG15258 | DRSC02478 | -0.1 | -0.1 | – | –
Rbp | DRSC15724 | 1.2 | 1.5 | – | –
Rbp | DRSC15726 | 0 | -0.3 | – | –
dpr16 | DRSC12217 | -0.1 | 0.6 | – | –
dpr16 | DRSC12249 | 0.1 | -0.3 | – | –
Act79B | DRSC11604 | 0.3 | 0.4 | – | –
Snoo | DRSC01008 | -0.2 | -0.4 | – | –
Snoo | DRSC03004 | -0.3 | -0.5 | – | –
Snoo | DRSC03035 | -0.4 | -1.3 | – | –
poe | DRSC03593 | 0.2 | 0.4 | – | –
CG7968 | DRSC01903 | -0.2 | -0.5 | – | –
Yeti | DRSC21138 | 0.6 | 1.3 | – | –
Lcp65APsi | DRSC08795 | 0 | 0.1 | – | –
Lcp65APsi | DRSC10342 | -0.3 | 0.2 | – | –
ClpX | DRSC15592 | -0.1 | 0 | – | –
LamC | DRSC07453 | -0.4 | -0.5 | – | –
CG4598 | DRSC02763 | -0.3 | -0.1 | – | –
BNIP3 | DRSC11761 | -0.2 | -0.3 | – | –
CG34330 | DRSC20043 | 0.1 | 0.7 | – | –
Nplp2 | DRSC09824 | -0.2 | -0.3 | – | –
CG17065 | DRSC20544 | 0.7 | 0.8 | – | –
CG32447 | DRSC11732 | -0.3 | -0.5 | – | –
CG32447 | DRSC11805 | -0.3 | -0.2 | – | –
Prestin | DRSC10507 | -0.5 | -1 | – | –
CG6191 | DRSC05938 | -0.3 | -0.8 | – | –
Ucp4A | DRSC19996 | -0.3 | -0.5 | – | –
MFS12 | DRSC07268 | -0.2 | 0.3 | – | –
Bsg | DRSC01010 | -0.3 | 0.4 | – | –
Bsg | DRSC01011 | -1.4 | -1.2 | – | –
Plp | DRSC10006 | -0.5 | 0.7 | – | –
Plp | DRSC10333 | -0.2 | 0 | – | –
Plp | DRSC10700 | -0.4 | -0.3 | – | –
loaf | DRSC09130 | -0.3 | -0.7 | – | –
CG11882 | DRSC14425 | 0.2 | 1.1 | – | –
CG34217 | DRSC05083 | -0.1 | 0.2 | – | –
Cpr66Cb | DRSC10769 | -0.1 | -0.1 | – | –
CG15728 | DRSC19694 | -0.2 | 0.3 | – | –
mir-210 (retired record) | DRSC19230 | -0.2 | -0.1 | – | –
TwdlM | DRSC15810 | -0.2 | 0.5 | – | –
bnb | DRSC20314 | -0.4 | -0.5 | – | –
Pp1-13C | DRSC20269 | 0 | 1.1 | – | –
snoRNA:Me28S-C3227a + snoRNA:Me18S-A1061 + snoRNA:Me28S-C3227b + 7 more | DRSC05497 | 0 | 0.3 | 0 | 0.1
Grip | DRSC17940 | 0.7 | 1.8 | – | –
Grip | DRSC18395 | 0 | -0.5 | – | –
Mybbp1A | DRSC18788 | -0.3 | -0.3 | – | –
hob | DRSC08426 | -0.2 | 0.1 | – | –
beat-Va | DRSC14192 | -0.2 | -0.5 | – | –
Pkcdelta | DRSC19356 | -0.2 | 0.6 | – | –
Pkcdelta | DRSC19399 | -0.1 | 0.3 | – | –
mi | DRSC04498 | 0.7 | 1.3 | – | –
Mabi | DRSC02489 | -0.4 | -0.4 | – | –
CG30274 | DRSC04171 | -0.4 | 0.1 | – | –
CG17147 | DRSC10249 | -0.1 | 0.3 | – | –
CG1513 | DRSC05194 | -0.3 | -0.3 | – | –
CG1513 | DRSC06553 | -0.5 | -0.4 | – | –
CG1513 | DRSC06554 | -0.3 | -0.4 | – | –
CG3961 | DRSC10390 | -0.4 | -0.3 | – | –
CG3961 | DRSC10391 | 0.1 | -0.5 | – | –
Rap1 | DRSC08686 | -0.1 | 0.2 | – | –
CHMP2B | DRSC10436 | -0.2 | -0.4 | – | –
CG1698 | DRSC06640 | -0.4 | -0.1 | – | –
CG13917 | DRSC08386 | -0.2 | -0.2 | – | –
CG7724 | DRSC10905 | -0.3 | -0.1 | – | –
CG30334 | DRSC05345 | -0.1 | -0.1 | – | –
Tsp5D | DRSC18380 | -0.2 | -0.4 | – | –
yellow-c + CIAPIN1 | DRSC01898 | -0.2 | -0.1 | – | –
CG14464 | DRSC07760 | 0.5 | 0.5 | – | –
Pdi | DRSC11250 | -0.2 | -0.1 | – | –
Hyccin | DRSC06983 | -0.3 | -0.4 | – | –
CG5114 | DRSC10482 | -0.1 | 0.9 | – | –
Eaat2 | DRSC00032 | 0 | 0.5 | – | –
Eaat2 | DRSC00749 | -0.3 | -0.5 | – | –
CG17780 + CG17781 | DRSC15266 | -0.4 | -0.1 | – | –
Snx3 | DRSC16027 | -0.1 | 0.2 | – | –
RpL19 | DRSC04649 | 10.1 | 7.9 | – | –
Asap | DRSC06493 | -0.3 | -0.4 | – | –
Asap | DRSC06830 | -0.4 | -0.6 | – | –
RnrL | DRSC03413 | 2.7 | 3.5 | – | –
Dlip1 | DRSC18460 | -0.3 | -0.5 | – | –
l(1)G0196 | DRSC20591 | 0.2 | -0.4 | – | –
l(1)G0196 | DRSC20628 | -0.4 | -1 | – | –
l(1)G0196 | DRSC20629 | 0.2 | -0.5 | – | –
